Assay results from the supplement of paper PMC10849652.
The list shows a part of the results.

Amino acid sequences for entries named in this document (tags omitted). A change or cut given only in a name is not applied to a line headed by its entry.
UniProt Q06481, whole entry, looked up: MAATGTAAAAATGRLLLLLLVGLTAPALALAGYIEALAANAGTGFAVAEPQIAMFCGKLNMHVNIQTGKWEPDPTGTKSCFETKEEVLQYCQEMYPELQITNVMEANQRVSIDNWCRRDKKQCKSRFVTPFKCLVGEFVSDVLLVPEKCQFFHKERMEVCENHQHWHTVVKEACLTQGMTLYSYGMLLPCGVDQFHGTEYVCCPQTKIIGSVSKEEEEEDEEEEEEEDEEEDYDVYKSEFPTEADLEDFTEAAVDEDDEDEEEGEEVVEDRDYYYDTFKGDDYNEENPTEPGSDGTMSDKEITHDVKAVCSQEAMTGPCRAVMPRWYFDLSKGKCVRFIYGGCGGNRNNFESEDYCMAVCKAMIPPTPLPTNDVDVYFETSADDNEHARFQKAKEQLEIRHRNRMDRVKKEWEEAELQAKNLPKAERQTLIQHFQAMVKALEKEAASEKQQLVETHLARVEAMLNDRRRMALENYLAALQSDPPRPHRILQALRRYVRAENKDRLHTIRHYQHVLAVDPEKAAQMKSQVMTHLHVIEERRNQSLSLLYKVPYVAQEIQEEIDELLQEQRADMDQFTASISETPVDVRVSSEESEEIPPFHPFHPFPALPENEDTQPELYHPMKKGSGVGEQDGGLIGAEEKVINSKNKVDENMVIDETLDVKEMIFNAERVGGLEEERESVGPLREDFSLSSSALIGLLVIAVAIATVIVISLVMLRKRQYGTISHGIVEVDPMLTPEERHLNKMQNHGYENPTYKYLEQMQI
UniProt Q9Y2Y0: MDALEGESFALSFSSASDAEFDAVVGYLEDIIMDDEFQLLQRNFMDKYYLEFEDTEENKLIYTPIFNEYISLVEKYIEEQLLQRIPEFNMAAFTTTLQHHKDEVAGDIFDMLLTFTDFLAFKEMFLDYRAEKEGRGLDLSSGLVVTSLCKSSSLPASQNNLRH
UniProt P18085: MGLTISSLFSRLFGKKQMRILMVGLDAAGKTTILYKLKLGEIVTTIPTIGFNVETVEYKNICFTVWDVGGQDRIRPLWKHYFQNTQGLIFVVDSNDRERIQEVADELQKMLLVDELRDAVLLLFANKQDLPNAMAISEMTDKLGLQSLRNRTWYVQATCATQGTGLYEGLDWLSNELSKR
UniProt Q8N5I2: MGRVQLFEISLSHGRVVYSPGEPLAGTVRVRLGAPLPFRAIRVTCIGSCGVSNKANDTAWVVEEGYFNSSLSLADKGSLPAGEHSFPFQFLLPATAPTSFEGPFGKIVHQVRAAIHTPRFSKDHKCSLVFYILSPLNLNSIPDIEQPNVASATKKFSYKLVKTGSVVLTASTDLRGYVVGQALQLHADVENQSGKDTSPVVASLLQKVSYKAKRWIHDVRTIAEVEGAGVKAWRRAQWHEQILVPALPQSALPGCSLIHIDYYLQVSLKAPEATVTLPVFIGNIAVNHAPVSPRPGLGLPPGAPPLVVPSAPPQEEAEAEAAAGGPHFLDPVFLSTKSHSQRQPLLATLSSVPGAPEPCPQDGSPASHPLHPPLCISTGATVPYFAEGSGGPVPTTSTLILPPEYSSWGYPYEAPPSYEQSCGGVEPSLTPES
UniProt P36404: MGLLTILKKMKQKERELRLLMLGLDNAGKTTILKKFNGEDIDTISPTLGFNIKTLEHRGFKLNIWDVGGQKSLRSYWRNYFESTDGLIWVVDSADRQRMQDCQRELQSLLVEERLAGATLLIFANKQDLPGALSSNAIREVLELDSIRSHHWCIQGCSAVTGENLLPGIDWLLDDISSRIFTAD
UniProt Q9Y587: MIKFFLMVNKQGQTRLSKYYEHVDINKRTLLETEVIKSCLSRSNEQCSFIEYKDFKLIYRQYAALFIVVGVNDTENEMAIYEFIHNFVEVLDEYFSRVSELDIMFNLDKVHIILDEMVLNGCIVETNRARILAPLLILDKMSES
UniProt Q9BZZ5: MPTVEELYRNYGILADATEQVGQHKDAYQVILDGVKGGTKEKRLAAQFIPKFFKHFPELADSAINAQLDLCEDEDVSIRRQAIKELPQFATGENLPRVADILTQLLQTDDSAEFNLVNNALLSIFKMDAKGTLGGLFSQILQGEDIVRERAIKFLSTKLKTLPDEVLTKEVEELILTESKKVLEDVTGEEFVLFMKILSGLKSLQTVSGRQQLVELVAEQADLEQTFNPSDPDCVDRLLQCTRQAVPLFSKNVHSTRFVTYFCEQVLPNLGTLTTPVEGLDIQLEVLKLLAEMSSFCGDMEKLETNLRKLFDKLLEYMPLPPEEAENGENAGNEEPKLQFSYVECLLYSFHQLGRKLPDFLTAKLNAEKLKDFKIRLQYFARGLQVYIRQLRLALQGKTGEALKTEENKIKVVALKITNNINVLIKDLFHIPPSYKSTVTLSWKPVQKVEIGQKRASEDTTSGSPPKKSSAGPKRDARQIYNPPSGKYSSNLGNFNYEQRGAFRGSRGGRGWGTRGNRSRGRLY
UniProt Q8IUX4: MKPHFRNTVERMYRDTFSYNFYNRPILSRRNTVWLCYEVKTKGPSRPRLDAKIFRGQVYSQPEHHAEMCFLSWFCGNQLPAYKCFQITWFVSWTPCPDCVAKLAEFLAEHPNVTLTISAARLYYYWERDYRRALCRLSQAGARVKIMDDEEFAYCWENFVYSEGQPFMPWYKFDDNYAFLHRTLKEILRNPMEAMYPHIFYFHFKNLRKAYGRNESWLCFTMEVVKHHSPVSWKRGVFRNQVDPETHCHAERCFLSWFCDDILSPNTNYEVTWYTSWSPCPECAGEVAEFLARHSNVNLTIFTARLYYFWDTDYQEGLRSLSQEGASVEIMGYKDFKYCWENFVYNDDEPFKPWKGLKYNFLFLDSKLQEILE
UniProt Q9NWB6: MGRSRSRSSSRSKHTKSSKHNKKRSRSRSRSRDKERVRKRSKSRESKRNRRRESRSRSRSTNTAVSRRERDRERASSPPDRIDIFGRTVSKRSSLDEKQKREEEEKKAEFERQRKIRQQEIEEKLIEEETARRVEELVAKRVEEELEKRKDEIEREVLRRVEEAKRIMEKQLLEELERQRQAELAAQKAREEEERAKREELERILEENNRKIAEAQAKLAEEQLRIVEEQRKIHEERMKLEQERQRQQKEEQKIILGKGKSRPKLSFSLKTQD
UniProt Q0VD83: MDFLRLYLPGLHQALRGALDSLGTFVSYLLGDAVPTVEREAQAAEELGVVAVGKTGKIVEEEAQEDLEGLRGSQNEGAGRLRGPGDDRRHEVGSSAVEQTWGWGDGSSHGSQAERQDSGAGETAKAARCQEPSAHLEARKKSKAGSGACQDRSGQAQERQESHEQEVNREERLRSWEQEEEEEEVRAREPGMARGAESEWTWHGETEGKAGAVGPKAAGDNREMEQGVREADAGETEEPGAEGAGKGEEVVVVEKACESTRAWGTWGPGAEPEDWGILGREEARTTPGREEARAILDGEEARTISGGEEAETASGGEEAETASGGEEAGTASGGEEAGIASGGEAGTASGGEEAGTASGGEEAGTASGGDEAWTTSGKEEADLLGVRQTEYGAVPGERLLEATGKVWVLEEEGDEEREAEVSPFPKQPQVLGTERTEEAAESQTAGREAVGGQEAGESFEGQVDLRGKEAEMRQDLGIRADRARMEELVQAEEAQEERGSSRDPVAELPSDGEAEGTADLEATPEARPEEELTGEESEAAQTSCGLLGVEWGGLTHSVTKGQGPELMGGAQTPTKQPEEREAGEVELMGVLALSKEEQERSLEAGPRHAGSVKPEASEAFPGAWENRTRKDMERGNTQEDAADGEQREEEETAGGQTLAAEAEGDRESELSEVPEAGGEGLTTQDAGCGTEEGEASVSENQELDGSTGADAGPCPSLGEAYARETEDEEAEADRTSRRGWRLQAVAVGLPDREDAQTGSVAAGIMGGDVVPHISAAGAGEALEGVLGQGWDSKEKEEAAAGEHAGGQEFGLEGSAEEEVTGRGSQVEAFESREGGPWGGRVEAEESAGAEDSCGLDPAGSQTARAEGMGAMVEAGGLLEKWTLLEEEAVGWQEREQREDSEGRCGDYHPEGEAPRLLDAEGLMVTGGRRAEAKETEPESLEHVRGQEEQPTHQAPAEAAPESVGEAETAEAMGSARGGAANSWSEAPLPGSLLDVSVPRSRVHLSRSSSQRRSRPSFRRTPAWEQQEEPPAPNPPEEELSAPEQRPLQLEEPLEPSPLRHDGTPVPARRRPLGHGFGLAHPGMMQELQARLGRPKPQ
UniProt Q6UXV4: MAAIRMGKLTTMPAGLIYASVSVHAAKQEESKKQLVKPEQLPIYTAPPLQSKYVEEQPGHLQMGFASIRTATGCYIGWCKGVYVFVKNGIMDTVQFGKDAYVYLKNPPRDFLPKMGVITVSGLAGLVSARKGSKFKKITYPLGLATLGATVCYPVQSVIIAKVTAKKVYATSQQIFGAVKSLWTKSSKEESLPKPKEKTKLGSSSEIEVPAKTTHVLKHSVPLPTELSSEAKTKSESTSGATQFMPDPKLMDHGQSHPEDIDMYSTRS
UniProt Q9H0R1: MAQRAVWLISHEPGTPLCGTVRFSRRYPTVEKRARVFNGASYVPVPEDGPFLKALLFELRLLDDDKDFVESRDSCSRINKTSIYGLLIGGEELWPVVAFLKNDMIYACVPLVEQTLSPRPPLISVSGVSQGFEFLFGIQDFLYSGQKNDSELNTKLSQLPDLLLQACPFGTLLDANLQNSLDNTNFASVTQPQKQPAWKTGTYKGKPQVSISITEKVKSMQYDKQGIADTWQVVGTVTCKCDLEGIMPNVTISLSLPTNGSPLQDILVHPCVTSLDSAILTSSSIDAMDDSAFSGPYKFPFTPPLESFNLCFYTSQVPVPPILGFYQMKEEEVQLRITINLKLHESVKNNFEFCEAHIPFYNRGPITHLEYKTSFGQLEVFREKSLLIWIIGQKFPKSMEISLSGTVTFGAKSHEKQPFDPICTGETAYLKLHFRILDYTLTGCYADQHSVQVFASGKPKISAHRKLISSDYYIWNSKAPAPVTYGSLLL
UniProt Q13795: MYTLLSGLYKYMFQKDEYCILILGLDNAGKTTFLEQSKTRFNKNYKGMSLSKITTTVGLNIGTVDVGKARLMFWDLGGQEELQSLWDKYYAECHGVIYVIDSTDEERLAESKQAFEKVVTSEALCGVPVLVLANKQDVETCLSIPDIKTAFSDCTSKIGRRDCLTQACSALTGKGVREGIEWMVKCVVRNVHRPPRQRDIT
UniProt Q8IUR7, whole entry, looked up: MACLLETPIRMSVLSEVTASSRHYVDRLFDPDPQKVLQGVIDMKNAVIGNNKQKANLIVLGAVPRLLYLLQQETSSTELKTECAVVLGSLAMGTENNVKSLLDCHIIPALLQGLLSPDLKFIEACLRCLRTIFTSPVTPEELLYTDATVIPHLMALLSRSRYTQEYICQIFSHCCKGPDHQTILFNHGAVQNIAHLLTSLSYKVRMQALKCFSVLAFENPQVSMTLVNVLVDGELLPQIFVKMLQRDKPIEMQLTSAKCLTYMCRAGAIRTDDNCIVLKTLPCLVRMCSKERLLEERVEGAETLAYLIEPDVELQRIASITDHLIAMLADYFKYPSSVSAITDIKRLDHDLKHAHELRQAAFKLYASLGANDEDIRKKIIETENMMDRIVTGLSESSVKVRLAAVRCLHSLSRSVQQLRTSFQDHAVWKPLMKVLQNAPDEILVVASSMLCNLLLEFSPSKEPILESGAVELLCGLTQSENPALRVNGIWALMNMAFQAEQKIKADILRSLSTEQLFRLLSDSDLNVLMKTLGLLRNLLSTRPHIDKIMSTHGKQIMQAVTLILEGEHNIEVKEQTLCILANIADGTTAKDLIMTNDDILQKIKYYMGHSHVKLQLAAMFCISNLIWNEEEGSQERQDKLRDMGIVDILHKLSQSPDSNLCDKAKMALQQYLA

Tests used:
Test in all cases: log2 fold change, soluble protein after heating vs DMSO (PISA); higher = thermal stabilisation; K562 lysate, 10 uM; active = over 0.2 and 3.5 SD of the protein, either way, in both replicates (recomputed)
[1] = compound: NCC(=O)Nc1ccc(-n2nc(C(F)(F)F)cc2-c2ccc3c(ccc4ccccc43)c2)cc1
In short: (§1)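 Dounce homogenisation of K562 pellets in PBS pH 7.4 with 1 mM MgCl2 produced a crude extract, used at 1 mg/mL protein. Exposure to 10 μM compound lasted 30 min, and aliquots were then heated for 3 min across 48°C-58°C, pooled and brought to 0.5% NP-40 at 4°C. The supernatant after 21,000xg for 90 min was quantified by TMTpro 16plex LC-MS/MS with channel sums equalised. Duplicate values are given as log-two fold change in thermal stability relative to solvent controls.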

vorinostat = compound: O=C(CCCCCCC(=O)Nc1ccccc1)NO [vorinostat]
In short: as §1

silmitasertib = compound: O=C(O)c1ccc2c(c1)nc(Nc1cccc(Cl)c1)c1ccncc12 [silmitasertib]
In short: as §1

[2] = compound: O=C1NC(=O)C(c2cnc3ccccn23)=C1c1cn2c3c(cc(F)cc13)CN(C(=O)N1CCCCC1)CC2
In short: as §1

entospletinib = compound: c1cn2cc(-c3ccc4cn[nH]c4c3)nc(Nc3ccc(N4CCOCC4)cc3)c2n1 [entospletinib]
In short: as §1

Measured: log2 fold change

APLP2 (UniProt Q06481)
inactive: [1] -0.01 | vorinostat 0.081 | silmitasertib -0.001 | [2] -0.015 | entospletinib 0.017

ARL2BP (UniProt Q9Y2Y0)
inactive: [1] 0.045 | vorinostat -0.077 | silmitasertib 0.027 | [2] -0.012 | entospletinib 0.052

ARF4 (UniProt P18085)
inactive: [1] -0.063 | vorinostat 0.024 | silmitasertib -0.036 | [2] -0.038 | entospletinib 0.018

ARPC5 (UniProt O15511)
inactive: [1] 0.006 | vorinostat 0.091 | silmitasertib -0.004 | [2] -0.02 | entospletinib -0.015

ARRDC1 (UniProt Q8N5I2)
inactive: [1] -0.004 | vorinostat -0.013 | silmitasertib 0.019 | [2] 0.041 | entospletinib -0.087

ARL2 (UniProt P36404)
inactive: [1] 0 | vorinostat -0.113 | silmitasertib 0.002 | [2] -0.01 | entospletinib -0.045

Fetched one by one from the list above (two):
ARL2 (UniProt P36404)
inactive: [1] 0 | vorinostat -0.113 | silmitasertib 0.002 | [2] -0.01 | entospletinib -0.045

ARPC5 (UniProt O15511)
inactive: [1] 0.006 | vorinostat 0.091 | silmitasertib -0.004 | [2] -0.02 | entospletinib -0.015

The list goes on.

AP4S1 (UniProt Q9Y587)
inactive: [1] -0.146 | vorinostat 0.058 | silmitasertib -0.03 | [2] 0.015 | entospletinib 0.055

API5 isoform 2 (UniProt Q9BZZ5)
inactive: [1] 0.042 | vorinostat 0.108 | silmitasertib 0.014 | [2] 0.028 | entospletinib -0.053

APOBEC3F (UniProt Q8IUX4)
inactive: [1] 0.102 | vorinostat -0.143 | silmitasertib -0.244 | [2] 0.037 | entospletinib 0.052

ARGLU1 (UniProt Q9NWB6)
inactive: [1] 0.01 | vorinostat 0.116 | silmitasertib 0.008 | [2] -0.067 | entospletinib -0.054

APOB (UniProt P04114)
inactive: [1] 0.063 | vorinostat 0.154 | silmitasertib 0.007 | [2] -0.012 | entospletinib 0.05

ARPC3 (UniProt O15145)
inactive: [1] 0 | vorinostat 0.129 | silmitasertib -0.017 | [2] -0.014 | entospletinib 0.013

APOBR (UniProt Q0VD83)
inactive: [1] 0.074 | vorinostat 0.073 | silmitasertib 0 | [2] -0.038 | entospletinib 0

APOOL (UniProt Q6UXV4)
inactive: [1] 0.003 | vorinostat 0.015 | silmitasertib -0.022 | [2] -0.014 | entospletinib 0.04

AP5M1 (UniProt Q9H0R1)
inactive: [1] 0.058 | vorinostat -0.031 | silmitasertib 0.117 | [2] 0.01 | entospletinib -0.016

ARFRP1 (UniProt Q13795)
inactive: [1] 0.068 | vorinostat -0.123 | silmitasertib 0.039 | [2] -0.037 | entospletinib -0.039

ARMC8 isoform 6 (UniProt Q8IUR7)
inactive: vorinostat 0.037 | silmitasertib 0.005
